{"source": "PubChem BioAssay AID1508588 (Peter MacCallum Cancer Centre, 2020)", "screen": "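Genome-wide search for knock-downs that heighten vemurafenib action in melanoma cells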 (primary screen)", "cells": "human WM266.4 melanoma cells (BRAF V600 mutant)", "knock-down reagent": "siRNA pool against human genes, 40 nM", "timing": "96 h from transfection to read-out", "conditions": "vemurafenib 300 nM (about IC25), added 48 h after transfection, for 48 h; comparison arm got DMSO vehicle only", "read-out": "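Cell gain (DAPI nuclei at end minus before drug, mean of two replicates) and medium lactate by absorbance per cell, both as ratio to non-targeting siRNA, also grouped into fold-change classes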", "direction": "cell gain with vemurafenib: higher = more cell gain than with non-targeting siRNA; lactate per cell with vemurafenib: higher = more lactate made per cell", "call rule": "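Enhancement is called by pairing each knock-down's vehicle-arm and drug-arm fold-change classes for viability or glycolysis; which class combinations qualify is not given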", "calls": "active = enhances vemurafenib effect; inactive = no enhancement seen", "note": "The deposit covers about 18,000 reagents; this is a part drawn at random. 790 of all reagents (4.4%) were called active. 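Calls rest on a combination of fold-change classes in drug and vehicle arms, not all shown here.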 Unmarked entries are inactive."}
The opening 2 records, ahead of the listing:
{"gene knocked down": "SRBD1 (S1 RNA binding domain 1)", "cell gain with vemurafenib": 0.19, "lactate per cell with vemurafenib": 1.19}
{"gene knocked down": "MRAS (muscle RAS oncogene homolog)", "cell gain with vemurafenib": 0.73, "lactate per cell with vemurafenib": 0.44}

Main list, from the first entry:
{"gene knocked down": "SRBD1 (S1 RNA binding domain 1)", "cell gain with vemurafenib": 0.19, "lactate per cell with vemurafenib": 1.19}
{"gene knocked down": "MRAS (muscle RAS oncogene homolog)", "cell gain with vemurafenib": 0.73, "lactate per cell with vemurafenib": 0.44}
{"gene knocked down": "NLGN4X (neuroligin 4 X-linked)", "cell gain with vemurafenib": 0.69, "lactate per cell with vemurafenib": 0.54}
{"gene knocked down": "ZNF8 (zinc finger protein 8)", "cell gain with vemurafenib": 0.38, "lactate per cell with vemurafenib": 1.5}
{"gene knocked down": "ZCCHC10 (zinc finger CCHC-type containing 10)", "cell gain with vemurafenib": 0.48, "lactate per cell with vemurafenib": 0.68}
{"gene knocked down": "RND1 (Rho family GTPase 1)", "cell gain with vemurafenib": 0.81, "lactate per cell with vemurafenib": 1.27}
{"gene knocked down": "OR4C46 (olfactory receptor family 4 subfamily C member 46)", "cell gain with vemurafenib": 0.32, "lactate per cell with vemurafenib": 1.81}
{"gene knocked down": "NSUN2 (NOP2/Sun RNA methyltransferase 2)", "cell gain with vemurafenib": "0.48 (active)", "lactate per cell with vemurafenib": 0.59}
{"gene knocked down": "ATP5MG (ATP synthase membrane subunit g)", "cell gain with vemurafenib": 0.37, "lactate per cell with vemurafenib": 1.12}
{"gene knocked down": "PRP4K (pre-mRNA processing factor kinase PRP4K)", "cell gain with vemurafenib": 0.17, "lactate per cell with vemurafenib": 0.82}
{"gene knocked down": "STAM (signal transducing adaptor molecule)", "cell gain with vemurafenib": 0.86, "lactate per cell with vemurafenib": 1.09}
{"gene knocked down": "RPS19BP1 (ribosomal protein S19 binding protein 1)", "cell gain with vemurafenib": 0.74, "lactate per cell with vemurafenib": 0.63}
{"gene knocked down": "CCDC50 (coiled-coil domain containing 50)", "cell gain with vemurafenib": 0.6, "lactate per cell with vemurafenib": 0.29}
{"gene knocked down": "HERC2 (HECT and RLD domain containing E3 ubiquitin protein ligase 2)", "cell gain with vemurafenib": 0.63, "lactate per cell with vemurafenib": 0.74}
{"gene knocked down": "CDT1 (chromatin licensing and DNA replication factor 1)", "cell gain with vemurafenib": 0.67, "lactate per cell with vemurafenib": 0.98}
{"gene knocked down": "RNASE10 (ribonuclease A family member 10 (inactive))", "cell gain with vemurafenib": 0.86, "lactate per cell with vemurafenib": 0.7}
{"gene knocked down": "ARL17B (ARF like GTPase 17B)", "cell gain with vemurafenib": 0.77, "lactate per cell with vemurafenib": 1.36}
{"gene knocked down": "SLC26A10P", "cell gain with vemurafenib": 0.84, "lactate per cell with vemurafenib": 0.5}
{"gene knocked down": "RP2 (RP2 activator of ARL3 GTPase)", "cell gain with vemurafenib": 0.93, "lactate per cell with vemurafenib": 0.57}
{"gene knocked down": "EN2 (engrailed homeobox 2)", "cell gain with vemurafenib": 0.6, "lactate per cell with vemurafenib": 1.73}
{"gene knocked down": "CMTM6 (CKLF like MARVEL transmembrane domain containing 6)", "cell gain with vemurafenib": 0.77, "lactate per cell with vemurafenib": 0.58}
{"gene knocked down": "SLC46A3", "cell gain with vemurafenib": 0.83, "lactate per cell with vemurafenib": 1.1}
{"gene knocked down": "CCDC91 (coiled-coil domain containing 91)", "cell gain with vemurafenib": 1.21, "lactate per cell with vemurafenib": 0.72}
{"gene knocked down": "GSTP1 (glutathione S-transferase pi 1)", "cell gain with vemurafenib": 0.66, "lactate per cell with vemurafenib": 0.39}
{"gene knocked down": "SMCP (sperm mitochondria associated cysteine rich protein)", "cell gain with vemurafenib": 0.77, "lactate per cell with vemurafenib": 0.68}
{"gene knocked down": "DENND6B (DENN domain containing 6B)", "cell gain with vemurafenib": 0.25, "lactate per cell with vemurafenib": 0.97}
{"gene knocked down": "ENOSF1 (enolase superfamily member 1)", "cell gain with vemurafenib": 0.83, "lactate per cell with vemurafenib": 1.12}
